Results reported in US20210060157A1 (published 2021).
These are yes or no findings as the source states them, for the method shown. Some entries that bind do so weakly or less than the wild type.

Target: cynomolgus monkey C6 (cynomolgus monkey)
Test: Western blot of cynomolgus monkey serum, antibody 1:500

binding: binds
B1: rat anti-human C6 monoclonal antibody 7E5 (antibody, V domains shown)
VH: EVQLVESDGGLVQPGGSLKLSCVASGFSFSDYYMAWVRQGPTKGLEWVATINYDGSSTYYRESVKGRFTISRDNAKRTLYLQMDSLRSEDTATYYCSRPSTEALFAYWGHGTLVTVSS
VL: DVVLTQTPSTLSATIGQSVSISCRSSQSLLNDVGNTYLYWYLQRPGQSPQLLIYLVSDLGSGVPNRFSGSGSGTDFTLKISGVEAEDLGIYYCMQASHAPYTFGAGTNLELK
notes: Whole antibody (150 kDa analyte in SPR) from a rat hybridoma; also called 7E5 mAb; supernatant #11
